# Results deposited as PubChem BioAssay AID1259425 (University of Nebraska Medical Center, 2018)
# Aim: 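Seek colon cancer weak points whose silencing resembles KSR1 loss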 (primary screen)
# Cells: HCT116 human colon cancer cells
# Reagents: siRNA pool against human genes, 50 nM siRNA
# Measured: 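After 50 nM siRNA pool, branched-DNA assay measures six marker transcripts per well, minus blank, normalised to the geometric mean of two housekeeping transcripts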
# Direction: BNIP3L mRNA: higher = more BNIP3L transcript after knockdown; NDRG1 mRNA: higher = more NDRG1 transcript after knockdown; BNIP3 mRNA: higher = more BNIP3 transcript after knockdown
# This is an unselected part of about 14,000 reagents tested. Further read-outs or replicates are left out here. Not stated in the record: the time to read-out.
gene,"BNIP3L mRNA, set 1","NDRG1 mRNA, set 1","BNIP3 mRNA, set 1"
RIOX1 (ribosomal oxygenase 1),0.245,0.164,0.354
INPP4A (inositol polyphosphate-4-phosphatase type I A),0.144,0.678,0.225
RPS15A (ribosomal protein S15a),0.138,0.545,0.423
TM9SF3 (transmembrane 9 superfamily member 3),0.125,0.144,0.22
CNRIP1 (cannabinoid receptor interacting protein 1),0.122,0.115,0.432
UBQLN1 (ubiquilin 1),0.0798,0.0757,0.219
AGO1 (argonaute RISC component 1),0.21,0.399,0.45
PRO2964 (retired record),0.0982,0.166,0.254
RASSF8 (Ras association domain family member 8),0.109,1.01,0.268
TPO (thyroid peroxidase),0.115,0.323,0.295
DNMT3A (DNA methyltransferase 3 alpha),0.188,0.92,0.4
SCAND2P (SCAN domain containing 2 pseudogene),0.0669,0.35,0.229
DDOST,0.138,0.044,0.227
POLM (DNA polymerase mu),0.0458,0.139,0.209
TMEM164 (transmembrane protein 164),0.214,0.361,0.277
PTPDC1 (protein tyrosine phosphatase domain containing 1),0.0567,0.108,0.266
BOP1 (BOP1 ribosomal biogenesis factor),0.238,0.379,0.737
LBP (lipopolysaccharide binding protein),0.182,0.285,0.695
NTAQ1 (N-terminal glutamine amidase 1),0.113,0.548,0.396
CYP3A5 (cytochrome P450 family 3 subfamily A member 5),0.0354,0.279,0.281
